No constants are given. Whether binding was seen depends on the method and setting. In cells and extracts the contact can be indirect. These calls come from enrichment with a bait or labelling near it, and not all partners need be listed.
B1: TPD53 (TPD52L1) (protein, UniProt Q16890 1-204)
chain: MEAQAQGLLETEPLQGTDEDAVASADFSSMLSEEEKEELKAELVQLEDEITTLRQVLSAKERHLVEIKQKLGMNLMNELKQNFSKSWHDMQTTTAYKKTHETLSHAGQKATAAFSNVGTAISKKFGDMSYSIRHSISMPAMRNSPTFKSFEERVETTVTSLKTKVGGTNPNGGSFEEVLSSTAHASAQSLAGGSRRTKEEELQC
B2: tumor protein D52 (TPD52) (protein, UniProt P55327 1-224)
chain: MDCREMDLYEDYQSPFDFDAGVNKSYLYLSPSGNSSPPGSPTLQKFGLLRTDPVPEEGEDVAATISATETLSEEEQEELRRELAKVEEEIQTLSQVLAAKEKHLAEIKRKLGINSLQELKQNIAKGWQDVTATSAYKKTSETLSQAGQKASAAFSSVGSVITKKLEDVKNSPTFKSFEEKVENLKSKVGGTKPAGGDFGEVLNSAANASATTTEPLPEKTQESL

The chains behind the UniProt entries cited, without tags or fusion partners.
UniProt O43399: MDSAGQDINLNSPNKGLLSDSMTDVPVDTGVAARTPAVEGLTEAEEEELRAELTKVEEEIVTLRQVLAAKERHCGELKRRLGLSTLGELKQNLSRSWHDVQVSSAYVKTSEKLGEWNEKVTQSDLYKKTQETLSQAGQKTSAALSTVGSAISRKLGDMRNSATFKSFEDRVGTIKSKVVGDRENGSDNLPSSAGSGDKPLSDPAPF
UniProt P61019: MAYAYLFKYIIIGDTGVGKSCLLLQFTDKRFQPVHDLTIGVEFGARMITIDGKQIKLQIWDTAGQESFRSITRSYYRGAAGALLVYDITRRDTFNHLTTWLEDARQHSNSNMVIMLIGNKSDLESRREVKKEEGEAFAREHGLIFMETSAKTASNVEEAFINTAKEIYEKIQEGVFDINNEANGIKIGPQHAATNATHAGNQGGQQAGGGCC
UniProt P51148: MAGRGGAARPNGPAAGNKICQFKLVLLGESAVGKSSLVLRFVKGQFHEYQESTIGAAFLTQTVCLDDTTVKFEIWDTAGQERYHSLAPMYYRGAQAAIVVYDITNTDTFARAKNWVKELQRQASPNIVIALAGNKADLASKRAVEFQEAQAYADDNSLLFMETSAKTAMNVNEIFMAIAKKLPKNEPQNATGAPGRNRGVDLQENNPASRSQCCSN

Target: GFP-tagged tumor protein D54 (GFP-TPD54) (human) (UniProt O43399)
Test: affinity purification with mass spectrometry; GFP-Trap beads, lysates of HeLa cells expressing GFP-TPD54 or GFP (control); lysis buffer 10 mM Tris-HCl pH 7.5, 150 mM NaCl, 0.5 mM EDTA, 0.5% NP-40; 1 h incubation; washes with 500 mM NaCl; four experiments, comparative volcano plot

Row | binding | Molecule
1 | binds | Rab2a (from UniProt P61019 1-212)
2 | binds | Rab5c (from UniProt P51148 1-216)
3 | binds | B1
4 | binds | B2

Source: paper PMC7039206
